Paper PMC10272187
No constants are given. Whether binding was seen depends on the method and setting. Binding seen in cells or lysates may run through a third protein. These calls come from enrichment with a bait or labelling near it, and not all partners need be listed. For some of these results: A no says only that the protein was not detected with the bait.

By UniProt entry, the sequences of proteins in these tests, tags left out.
UniProt Q8IZP0: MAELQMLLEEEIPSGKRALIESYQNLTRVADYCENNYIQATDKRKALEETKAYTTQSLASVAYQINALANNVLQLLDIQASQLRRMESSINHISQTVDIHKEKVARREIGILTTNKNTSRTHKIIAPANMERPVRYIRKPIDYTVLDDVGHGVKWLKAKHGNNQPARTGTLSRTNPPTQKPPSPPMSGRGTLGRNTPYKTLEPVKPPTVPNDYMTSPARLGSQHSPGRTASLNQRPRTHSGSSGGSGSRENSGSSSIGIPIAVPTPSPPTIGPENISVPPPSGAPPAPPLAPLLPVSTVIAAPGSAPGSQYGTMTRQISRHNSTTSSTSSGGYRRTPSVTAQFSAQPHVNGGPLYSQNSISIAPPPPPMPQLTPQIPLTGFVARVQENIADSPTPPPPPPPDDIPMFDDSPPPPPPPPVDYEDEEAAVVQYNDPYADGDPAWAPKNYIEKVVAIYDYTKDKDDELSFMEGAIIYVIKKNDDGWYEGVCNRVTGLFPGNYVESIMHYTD
UniProt P30153: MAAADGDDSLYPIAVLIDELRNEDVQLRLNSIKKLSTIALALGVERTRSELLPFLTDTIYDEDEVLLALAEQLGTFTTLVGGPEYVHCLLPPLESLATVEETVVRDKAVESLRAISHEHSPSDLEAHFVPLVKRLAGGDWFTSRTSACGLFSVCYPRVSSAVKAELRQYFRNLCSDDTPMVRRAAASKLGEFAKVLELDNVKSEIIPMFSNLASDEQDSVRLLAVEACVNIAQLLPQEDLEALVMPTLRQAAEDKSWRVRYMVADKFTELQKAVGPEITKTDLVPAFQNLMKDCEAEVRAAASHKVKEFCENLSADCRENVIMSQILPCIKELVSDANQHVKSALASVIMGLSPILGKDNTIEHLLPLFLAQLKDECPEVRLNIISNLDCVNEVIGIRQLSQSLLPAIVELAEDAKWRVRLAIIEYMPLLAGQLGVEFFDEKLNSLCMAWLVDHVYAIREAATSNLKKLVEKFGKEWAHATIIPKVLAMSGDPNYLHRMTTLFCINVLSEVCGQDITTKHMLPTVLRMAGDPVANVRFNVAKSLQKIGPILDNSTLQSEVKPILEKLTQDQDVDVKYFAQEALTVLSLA
UniProt Q9UQB8: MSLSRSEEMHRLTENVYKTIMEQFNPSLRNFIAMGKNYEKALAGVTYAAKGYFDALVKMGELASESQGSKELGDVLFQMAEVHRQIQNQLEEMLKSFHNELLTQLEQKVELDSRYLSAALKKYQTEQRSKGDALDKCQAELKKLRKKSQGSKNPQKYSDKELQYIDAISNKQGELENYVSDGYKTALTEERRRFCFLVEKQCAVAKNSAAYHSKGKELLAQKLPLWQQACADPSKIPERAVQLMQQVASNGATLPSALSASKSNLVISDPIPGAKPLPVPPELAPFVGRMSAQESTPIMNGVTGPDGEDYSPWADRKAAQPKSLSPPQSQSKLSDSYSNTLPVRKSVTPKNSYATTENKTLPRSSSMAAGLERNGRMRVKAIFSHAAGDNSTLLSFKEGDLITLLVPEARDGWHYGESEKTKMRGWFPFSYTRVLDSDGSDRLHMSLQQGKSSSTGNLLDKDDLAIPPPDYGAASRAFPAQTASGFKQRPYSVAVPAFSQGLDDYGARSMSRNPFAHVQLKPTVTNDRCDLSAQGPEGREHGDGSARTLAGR
UniProt Q6T4R5: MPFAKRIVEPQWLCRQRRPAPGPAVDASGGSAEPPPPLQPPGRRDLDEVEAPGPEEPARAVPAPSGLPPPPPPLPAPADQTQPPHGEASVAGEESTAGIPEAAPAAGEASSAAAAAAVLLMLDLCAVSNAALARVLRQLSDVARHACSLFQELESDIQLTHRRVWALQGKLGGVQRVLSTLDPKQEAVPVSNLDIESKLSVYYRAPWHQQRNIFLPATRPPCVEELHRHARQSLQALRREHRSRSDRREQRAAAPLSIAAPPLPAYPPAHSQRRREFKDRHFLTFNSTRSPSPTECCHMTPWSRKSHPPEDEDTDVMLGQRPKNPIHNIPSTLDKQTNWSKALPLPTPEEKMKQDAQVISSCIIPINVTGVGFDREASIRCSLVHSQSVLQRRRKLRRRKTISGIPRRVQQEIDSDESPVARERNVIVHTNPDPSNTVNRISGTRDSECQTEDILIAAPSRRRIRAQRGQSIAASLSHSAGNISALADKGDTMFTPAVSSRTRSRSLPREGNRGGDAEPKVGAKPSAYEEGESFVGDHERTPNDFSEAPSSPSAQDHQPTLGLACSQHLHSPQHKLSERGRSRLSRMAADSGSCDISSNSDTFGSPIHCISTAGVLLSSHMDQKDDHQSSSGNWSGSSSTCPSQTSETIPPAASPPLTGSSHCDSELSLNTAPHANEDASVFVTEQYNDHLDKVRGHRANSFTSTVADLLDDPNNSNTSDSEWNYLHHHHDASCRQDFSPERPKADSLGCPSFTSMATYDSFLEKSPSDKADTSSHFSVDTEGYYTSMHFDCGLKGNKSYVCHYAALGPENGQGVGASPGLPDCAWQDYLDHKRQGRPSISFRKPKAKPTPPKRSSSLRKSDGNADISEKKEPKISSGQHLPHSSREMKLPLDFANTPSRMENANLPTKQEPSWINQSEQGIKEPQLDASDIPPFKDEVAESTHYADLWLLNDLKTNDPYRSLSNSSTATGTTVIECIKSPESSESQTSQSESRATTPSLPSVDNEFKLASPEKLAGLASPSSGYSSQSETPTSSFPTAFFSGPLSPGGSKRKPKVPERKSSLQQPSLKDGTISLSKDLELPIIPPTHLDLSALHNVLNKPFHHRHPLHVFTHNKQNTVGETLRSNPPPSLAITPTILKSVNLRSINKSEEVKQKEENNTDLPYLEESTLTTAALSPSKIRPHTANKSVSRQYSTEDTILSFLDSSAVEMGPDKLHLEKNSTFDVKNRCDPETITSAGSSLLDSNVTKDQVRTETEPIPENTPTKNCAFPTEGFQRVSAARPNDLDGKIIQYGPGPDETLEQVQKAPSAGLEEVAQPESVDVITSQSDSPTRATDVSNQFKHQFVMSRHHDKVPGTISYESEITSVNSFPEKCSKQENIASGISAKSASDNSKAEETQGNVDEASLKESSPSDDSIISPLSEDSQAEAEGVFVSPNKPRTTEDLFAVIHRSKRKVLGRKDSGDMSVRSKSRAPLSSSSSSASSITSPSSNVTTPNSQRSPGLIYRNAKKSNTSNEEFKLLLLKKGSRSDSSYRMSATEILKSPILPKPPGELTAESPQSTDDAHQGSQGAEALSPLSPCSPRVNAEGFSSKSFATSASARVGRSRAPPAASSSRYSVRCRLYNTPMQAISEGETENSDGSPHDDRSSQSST
UniProt Q92558: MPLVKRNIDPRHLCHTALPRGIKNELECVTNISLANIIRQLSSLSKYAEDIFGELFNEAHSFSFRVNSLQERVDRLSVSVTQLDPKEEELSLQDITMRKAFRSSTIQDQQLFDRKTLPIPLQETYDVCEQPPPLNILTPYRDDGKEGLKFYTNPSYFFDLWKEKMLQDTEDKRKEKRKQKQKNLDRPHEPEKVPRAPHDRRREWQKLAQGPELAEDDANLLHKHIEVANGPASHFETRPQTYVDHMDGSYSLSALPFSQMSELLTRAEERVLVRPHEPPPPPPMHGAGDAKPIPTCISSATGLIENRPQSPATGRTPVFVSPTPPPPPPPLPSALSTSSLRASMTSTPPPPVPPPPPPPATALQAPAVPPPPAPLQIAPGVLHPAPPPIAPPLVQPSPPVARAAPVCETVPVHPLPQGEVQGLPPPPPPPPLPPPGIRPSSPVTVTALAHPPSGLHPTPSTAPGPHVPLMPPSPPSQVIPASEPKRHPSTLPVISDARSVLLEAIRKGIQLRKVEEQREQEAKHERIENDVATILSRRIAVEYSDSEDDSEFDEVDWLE
UniProt P67775: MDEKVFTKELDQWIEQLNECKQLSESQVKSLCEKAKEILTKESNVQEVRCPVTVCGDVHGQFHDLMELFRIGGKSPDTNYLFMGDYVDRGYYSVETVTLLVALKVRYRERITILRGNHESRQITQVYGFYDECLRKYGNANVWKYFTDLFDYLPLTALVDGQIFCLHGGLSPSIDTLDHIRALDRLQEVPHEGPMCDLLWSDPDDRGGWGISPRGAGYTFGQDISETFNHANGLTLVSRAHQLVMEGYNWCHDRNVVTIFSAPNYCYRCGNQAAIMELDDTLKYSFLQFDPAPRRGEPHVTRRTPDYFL
UniProt P62714: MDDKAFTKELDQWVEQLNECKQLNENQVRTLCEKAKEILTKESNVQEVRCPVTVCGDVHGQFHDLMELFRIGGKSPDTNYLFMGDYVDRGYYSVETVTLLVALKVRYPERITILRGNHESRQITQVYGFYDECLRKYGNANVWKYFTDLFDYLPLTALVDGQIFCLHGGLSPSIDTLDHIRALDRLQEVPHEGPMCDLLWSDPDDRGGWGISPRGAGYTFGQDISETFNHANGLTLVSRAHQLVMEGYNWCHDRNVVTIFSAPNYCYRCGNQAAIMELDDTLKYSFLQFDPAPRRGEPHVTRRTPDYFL
UniProt Q15172: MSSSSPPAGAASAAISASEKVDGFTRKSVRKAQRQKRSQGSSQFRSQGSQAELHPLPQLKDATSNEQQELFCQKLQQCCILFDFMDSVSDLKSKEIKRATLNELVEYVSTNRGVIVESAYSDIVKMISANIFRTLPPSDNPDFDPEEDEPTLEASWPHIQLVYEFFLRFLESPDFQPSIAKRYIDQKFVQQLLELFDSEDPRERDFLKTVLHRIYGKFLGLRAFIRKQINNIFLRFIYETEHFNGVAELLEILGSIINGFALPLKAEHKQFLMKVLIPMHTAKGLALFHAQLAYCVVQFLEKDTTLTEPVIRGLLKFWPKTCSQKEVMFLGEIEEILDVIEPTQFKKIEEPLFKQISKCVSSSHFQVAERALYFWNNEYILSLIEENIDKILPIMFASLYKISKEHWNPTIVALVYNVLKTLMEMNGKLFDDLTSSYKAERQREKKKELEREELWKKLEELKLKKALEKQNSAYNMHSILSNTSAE
UniProt Q70E73: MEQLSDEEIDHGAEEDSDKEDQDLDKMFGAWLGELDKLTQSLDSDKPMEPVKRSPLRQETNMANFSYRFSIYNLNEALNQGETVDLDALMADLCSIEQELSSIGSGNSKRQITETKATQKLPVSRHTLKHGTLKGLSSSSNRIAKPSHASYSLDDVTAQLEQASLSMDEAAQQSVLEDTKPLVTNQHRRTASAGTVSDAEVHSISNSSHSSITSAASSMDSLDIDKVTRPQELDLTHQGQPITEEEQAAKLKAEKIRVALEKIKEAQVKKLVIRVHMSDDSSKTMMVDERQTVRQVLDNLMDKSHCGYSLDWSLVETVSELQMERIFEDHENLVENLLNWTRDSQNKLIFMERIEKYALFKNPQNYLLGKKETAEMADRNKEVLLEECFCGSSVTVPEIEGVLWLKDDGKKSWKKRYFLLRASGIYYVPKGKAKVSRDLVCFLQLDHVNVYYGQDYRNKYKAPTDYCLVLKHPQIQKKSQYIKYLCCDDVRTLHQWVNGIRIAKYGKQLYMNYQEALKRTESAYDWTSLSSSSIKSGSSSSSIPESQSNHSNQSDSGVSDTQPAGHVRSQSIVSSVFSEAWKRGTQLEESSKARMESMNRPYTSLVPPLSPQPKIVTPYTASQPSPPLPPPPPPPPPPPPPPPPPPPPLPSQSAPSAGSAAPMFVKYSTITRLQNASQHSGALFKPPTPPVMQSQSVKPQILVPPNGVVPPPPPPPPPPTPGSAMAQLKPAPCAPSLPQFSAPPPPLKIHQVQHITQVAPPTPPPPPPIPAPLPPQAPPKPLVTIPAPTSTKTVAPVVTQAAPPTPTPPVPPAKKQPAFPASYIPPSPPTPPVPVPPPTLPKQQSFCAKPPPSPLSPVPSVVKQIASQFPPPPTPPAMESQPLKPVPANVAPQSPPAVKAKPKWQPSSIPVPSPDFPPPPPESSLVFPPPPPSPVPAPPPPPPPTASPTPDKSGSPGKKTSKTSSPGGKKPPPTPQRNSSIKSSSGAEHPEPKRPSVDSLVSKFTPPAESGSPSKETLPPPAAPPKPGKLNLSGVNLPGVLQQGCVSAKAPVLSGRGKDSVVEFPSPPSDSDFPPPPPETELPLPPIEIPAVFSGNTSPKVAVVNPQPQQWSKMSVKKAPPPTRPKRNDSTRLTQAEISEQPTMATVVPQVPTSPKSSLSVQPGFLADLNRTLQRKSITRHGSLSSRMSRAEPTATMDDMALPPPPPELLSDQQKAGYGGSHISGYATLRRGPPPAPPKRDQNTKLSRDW

Assays:
[1] = molecular target: FLAG-GFP ABI1 (UniProt Q8IZP0); assay: affinity purification with mass spectrometry; Tandem affinity purification (FLAG-M2 beads, FLAG peptide elution, then GFP-trap) of FLAG-GFP ABI1 from stable MCF10A parental or RAC1 Q61L cells, treated or not with 100 µM CK666 for 16 h; XB-NP40 lysis buffer, 4 °C; FLAG-GFP as control
[2] = molecular target: FLAG-GFP PPP2R1A (UniProt P30153); assay: affinity purification with mass spectrometry; Tandem affinity purification (FLAG then GFP) of FLAG-GFP PPP2R1A from stable MCF10A and MDA-MB-231 cells; XB-NP40 lysis buffer, 4 °C; FLAG-GFP as control

binding [1]	binding [2]	Substance
binds		IRSp53 (from UniProt Q9UQB8 1-552)
binds		NHS (from UniProt Q6T4R5 1-1651)
	no binding	WAVE1 (from UniProt Q92558 1-559)

The next lines start with the substance.

Substance	binding [1]	binding [2]
PPP2CA (from UniProt P67775 1-309) (enzyme)	binds	
PPP2CB (from UniProt P62714 1-309) (enzyme)	binds	
PPP2R5A (from UniProt Q15172 1-486)		binds
lamellipodin (from UniProt Q70E73 1-1250)	binds	
